{"source": "paper PMC10500570", "about": "(ACS Omega, 2023)", "system": "SH-SY5Y cells", "assay": "SRB cytotoxicity assay", "assay_type": "cell-based", "details": "Homo sapiens, 48 h, read-out: GI50 ± SD"}
{"smiles": "COc1cc2c(cc1OC)C(=O)C(CC1CCN(Cc3ccccc3)CC1)C2", "note": "(stereo not shown) [donepezil, reference compound]", "values": [{"measurement": "GI50", "value": "92.7 ± 8.49", "unit": "µM"}]}
